Values joined by “and” are separate entries in the source; they are usually repeats but may differ in a detail not shown here. Identical values can stand only once. In all, about 350,000 compounds went through this assay and about 1,200 (0.34%) were called active. Inconclusive results, whose numbers are uncertain, are shown with a selection of clear calls. The call rests on the fitted dose curve; in most records, active means well fitted inhibition curve with a large enough effect; inconclusive means small, poorly fitted or top-dose-only effect; inactive means no such curve, though single readings can be large or run the other way. Potencies of inconclusive entries are doubtful fits and often do not repeat.
target: DNA repair nuclease/redox regulator APEX1 (Homo sapiens) (UniProt P27695); experiment: qHTS Assay for Inhibitors of the Human Apurinic/apyrimidinic Endonuclease 1 (APE1); details: recombinant APE1, TAMRA/BHQ-2 abasic DNA cleavage fluorescence; activity change, negative = inhibition: at 65.8 µM (top of the series); further: nearly all actives have a fitted effect of over 55% in size;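 on activity change, negative = inhibition: plate controls were vehicle for no effect and reference inhibitor for full effect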
Method in brief: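 Step 1: APE1 (0.75 nM) with compound, 15 min RT. Step 2: add 50 nM fluorophore/quencher THF duplex. Step 3: three fluorescence reads 60 s apart (525/598 nm); read 3 minus read 1 = reaction progress.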
Potency means the concentration at half of the fitted maximal effect.

By UniProt entry, the sequences of proteins in these tests, tags left out.
UniProt P27695, whole entry, looked up: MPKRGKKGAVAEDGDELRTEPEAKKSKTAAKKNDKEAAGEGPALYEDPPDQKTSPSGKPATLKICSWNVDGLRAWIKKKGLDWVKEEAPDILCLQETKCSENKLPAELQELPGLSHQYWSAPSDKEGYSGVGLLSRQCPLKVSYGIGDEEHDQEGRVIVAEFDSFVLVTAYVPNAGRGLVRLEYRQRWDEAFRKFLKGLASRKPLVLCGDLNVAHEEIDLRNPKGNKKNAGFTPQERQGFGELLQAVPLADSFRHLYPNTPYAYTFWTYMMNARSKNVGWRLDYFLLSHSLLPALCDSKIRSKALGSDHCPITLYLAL

Row | Structure (SMILES) | Potency | activity change, negative = inhibition
1 | CC(C)c1ccc(N2C(=O)NC(=O)/C(=C\C=C\c3ccco3)C2=O)cc1 | inconclusive: 7.94 µM [inhibitor, single point] | –
2 | O=C1OC2(c3cc(Br)c(O)cc3Oc3c2cc(Br)c(O)[c]3[Hg])c2ccccc21 (stereo unspecified) | active: 12.6 µM | –
3 | CCOP(=S)(OCC)SCSc1ccc(Cl)cc1 | inconclusive: 31.6 µM [inhibitor, single point] | –
4 | CC(C)Sc1nnc([C@@H](N)Cc2ccccc2)o1 | – | inactive: 3.04%
5 | CC1=NCCc2c1[nH]c1cc(O)ccc21 | inconclusive: 31.6 µM [inhibitor, partial curve] | –
6 | Cc1cccc2c1=NC(=O)/C(=C/c1c(O)[nH]c(=O)[nH]c1=O)C=2 | – | inactive: -2.13%
7 | COc1cc(O)c(C(=O)O)c(-c2cc(O)c(O)cc2C)c1 | active: 20 µM | –
8 | O=C(CCn1c(=O)oc2ccccc21)N1CCN(C(c2ccccc2)c2ccccc2)CC1 | inconclusive: 11.2 µM [inhibitor, partial curve] | –
9 | O=c1[nH]c(O)c(C=NC2CCCCC2)c(=O)[nH]1 | – | inactive: -3.37%
10 | CC1(C)C2(Cl)C(Cl)C(Cl)C(Cl)(C(Cl)Cl)C1(Cl)C2Cl (stereo unspecified) | inconclusive: 0.0032 µM [inhibitor, full curve, poor fit] | –
11 | Cc1cccn2c(=O)c(C=Nc3ccccc3)c(NCc3ccco3)nc12 | inconclusive: 39.8 µM [inhibitor, single point] | –
12 | O=C(O)c1cccc(Cl)c1 | – | inactive: -0.875%
13 | CNNC | inconclusive: 10 µM [inhibitor, single point] | –
14 | O=C1C=CC(=O)c2c(O)cccc21 | active: 0.316 µM | –
15 | OC[C@H]1O[C@@H](n2cnc3cc(Cl)c(Cl)cc32)[C@H](O)[C@H]1O | inactive | –
16 | CC[C@@H]1/C=C/C=C/C[C@H](C)[C@@H](O)[C@](C)(O)C(=O)[C@H](C)[C@@H](O)[C@H](C)C(=O)[C@H](C)[C@@H](O)[C@H](C)/C=C/C(=O)O[C@H]2[C@@H](C)[C@@H](CC1)O[C@@]1(CC[C@@H](C)[C@@H](C[C@H](C)O)O1)[C@@H]2C | – | inactive: 2.66%
17 | Oc1cc2c(cc1O)[C@H]1c3ccccc3CN[C@@H]1CC2 | – | inactive: 7.62%
18 | [O]=[Cd] | inconclusive: 39.8 µM [inhibitor, single point] | –
19 | CC(=O)NC1CC2CCC(C1)N2 (stereo unspecified) | inconclusive: 22.4 µM [inhibitor, partial curve, poor fit] | –
20 | CCC(C)n1c(O)c(C=NCCc2ccccc2)c(=O)[nH]c1=S (stereo unspecified) | inconclusive: 3.16 µM [inhibitor, single point] | –
21 | O=C(NC1CCCCC1)Oc1cc2oc(=O)sc2cc1Cl | inconclusive: 15.8 µM [inhibitor, partial curve] | –
22 | Cc1ccc(N)cc1N | inactive | –
23 | CN(C)c1ccc(/C=C2/C(=N\O)C3CCN2CC3)cc1 | – | inactive: -1.45%
24 | N[C@@H](Cn1oc(=O)[nH]c1=O)C(=O)O | inactive and inconclusive: 35.5 µM [inhibitor, single point] | –
25 | CC(C)CNC(=O)c1c(N)n(Cc2ccc3c(c2)OCO3)c2nc3ccccc3nc12 | – | inactive: -1.91%
26 | CC[C@@H]1C(=O)OC[C@@H]1Cc1cncn1C | inactive | –

Row | Structure (SMILES) | Potency | activity change, negative = inhibition
27 | Cc1ccc(-c2nc(CS(=O)CC(=O)N3CCC4(CC3)OCCO4)c(C)o2)cc1 (stereo unspecified) | – | inactive: -5.56%
28 | O=C(O)c1ccccc1-c1c2cc(Br)c(=O)cc-2oc2[c]([Hg])c(O)c(Br)cc12 | active: 25.1 µM | –
29 | O=C1C(I)=CC(=C(c2cc(I)c(O)c(I)c2)c2ccccc2C(=O)O)C=C1I | inconclusive: 22.4 µM [inhibitor, partial curve] | –
30 | OCCBr | – | inactive: 2.11%
31 | COc1cc(-c2oc3cc(O)cc(O)c3c(=O)c2O)ccc1O | inconclusive: 22.4 µM [inhibitor, single point] and inconclusive: 39.8 µM [inhibitor, single point] | –
32 | COc1ccc(OC)c(N2C(=O)NC(=O)/C(=C/c3ccc([N+](=O)[O-])s3)C2=O)c1 | inconclusive: 31.6 µM [inhibitor, single point] | –
33 | CCC(=NCc1cc(OC)cc(OC)c1)c1c(O)n(C2CCCCC2)c(=O)[nH]c1=O | inconclusive: 3.98 µM [inhibitor, single point] | –
34 | CC1=CC(=C2C(=O)NC(=S)NC2=O)C=C(C(F)(F)F)N1C | inconclusive: 39.8 µM [inhibitor, single point] | –
35 | CC1=C[C@@H]2c3cccc4[nH]cc(c34)C[C@H]2N(C)C1 | inconclusive: 3.55 µM [inhibitor, full curve] | –
36 | CC(C)[N+](C)(CCC(C(N)=O)(c1ccccc1)c1ccccc1)C(C)C | inconclusive: 7.94 µM [inhibitor, single point] | –
37 | CCC(Oc1ccc(Cl)cc1)C(=O)OC1CC2CCC(C1)N2C (stereo unspecified) | – | inactive: 0.378%
38 | O=c1[nH]c2ccccc2n1CCCN1CCC(n2c(=O)[nH]c3cc(Cl)ccc32)CC1 | inconclusive: 7.08 µM [inhibitor, partial curve, poor fit] | –
39 | N#CC1=C(N)Oc2c(c(=O)oc3ccccc23)C1c1ccncc1 (stereo unspecified) | – | inactive: 13.7%
40 | CC(C)CCOC(=O)c1c(N)n(CC2CCCO2)c2nc3ccccc3nc12 (stereo unspecified) | inconclusive: 0.224 µM [inhibitor, full curve, poor fit] | –
41 | CCOc1cc2c(cc1OCC)-n1cccc1C(c1ccc(OC(F)F)cc1)NC2 (stereo unspecified) | inconclusive: 26.7 µM [inhibitor, single point] | –
42 | Cc1ccc(NC(=O)c2snnc2C)cc1Cl | – | inactive: 6.26%
43 | O=C1CCCC2=C1C(c1cccnc1)Nc1ccccc1N2 (stereo unspecified) | inconclusive: 0.355 µM [inhibitor, full curve] | –
44 | O=C1NC(=O)C2=Cc3ccc(O)cc3OC2(O)N1 (stereo unspecified) | inconclusive: 31.6 µM [inhibitor, single point] | –
45 | NCCNC[C@@H](N)CCCN=C(N)N[N+](=O)[O-] | – | inactive: -1.03%
46 | COC(=O)C(O)(c1ccc(NC(=S)NC(=O)c2ccc(Cl)cc2Cl)c(C)c1)C(F)(F)F (stereo unspecified) | inconclusive: 12.6 µM [inhibitor, partial curve] | –
47 | O=C1C(Cl)=CC(=Nc2ccc(O)cc2)C=C1Cl | inconclusive: 4.47 µM [inhibitor, full curve, poor fit] | –
48 | Oc1ccc(C[C@H]2NCCc3cc(O)c(O)cc32)cc1O | – | inactive: 53.6%
49 | CCN(CC)CCOC(=O)c1ccc(N=Cc2c(O)[nH]c(=O)[nH]c2=O)cc1 | – | inactive: 2.73%
50 | Cc1ccc(N=CN(C)C=Nc2ccc(C)cc2C)c(C)c1 | inconclusive: 31.6 µM [inhibitor, single point] | –
51 | CCCCCCn1c(=O)c(C(=O)Nc2nnc(C)s2)c(O)c2ccccc21 | – | inactive: -1.72%
